Experimental data published in patent US20130224313A1 (CENTRO DE INGENIERIA GENETICA Y BIOTECNOLOGIA, published 2013).
These are yes or no findings as the source states them, for the method shown. For part of these data: Binding seen in cells or lysates may run through a third protein. Some entries that bind do so weakly or less than the wild type.

By UniProt entry, the sequences of proteins in these tests, tags left out. Where a name states a change or a piece, a line headed by the entry shows the natural chain unless it says otherwise. Residues count along the entry.
UniProt Q8N668: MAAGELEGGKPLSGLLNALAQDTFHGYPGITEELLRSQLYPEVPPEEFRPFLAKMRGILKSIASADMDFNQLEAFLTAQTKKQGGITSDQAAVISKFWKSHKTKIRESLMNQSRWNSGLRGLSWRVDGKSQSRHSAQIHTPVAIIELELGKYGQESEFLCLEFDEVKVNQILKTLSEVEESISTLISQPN
COMMD1 protein (endogenous, in tumor cells and their total protein extracts): residues 2-190 of Q8N668

Experiments:
[1] = biological target: COMMD1, complete sequence of the COMMD1 gene (two-hybrid plasmid) (human) (UniProt Q8N668); test: yeast two-hybrid mating (FIG. 1)
[2] = biological target: COMMD1 protein (endogenous, in tumor cells and their total protein extracts) (human) (UniProt Q8N668); test: pulldown from SW948 extract, Western blot (FIG. 2A)
[3] = biological target: COMMD1 protein (endogenous, in tumor cells and their total protein extracts) (human) (UniProt Q8N668); test: pulldown: biotinylated peptide on streptavidin sepharose, SW948 total extract, anti-COMMD1 Western blot

| Binder | binding [1] | binding [2] | binding [3] |
| --- | --- | --- | --- |
| HARIKPTFRRLKWKYKGKFW (Two-hybrid bait; not shown: fusion partner encoded by the pGBKT7 two-hybrid bait vector) [L2 peptide expressed from plasmid pGBKL2-1 (pGBKT7 vector) in yeast strain AH109] | binds | – | – |
| HARIKPTFRRLKWKYKGKFW (biotinylated (site not stated)) [synthetic L2 peptide, biotinylated, attached to streptavidin sepharose resin] | – | binds | binds |
